Values of other authors as cited in PMC4029159 (Journal of medicinal chemistry, 2013).

System: Vero
Settings: read-out: Cellular IC50 Vero; ref [15]; cited from earlier work

For `O=C(CCCCCCC(=O)Nc1ccccc1)NO` [SAHA, suberoylanilide hydroxamic acid], which IC50 is on record?
Its IC50 is 5.2 ± 0.96 µM.
